No constants are given. Whether binding was seen depends on the method and setting. For some assays here: In cells and extracts the contact can be indirect. Some results given as binding are weak or reduced against the parent protein; the word gives no strength. Sequences can lack the tags named with a protein.
T1: ATH1-BD (Arabidopsis Thaliana Homeobox fused to the DNA binding domain) (Arabidopsis thaliana) (UniProt P48731)
T1 sequence: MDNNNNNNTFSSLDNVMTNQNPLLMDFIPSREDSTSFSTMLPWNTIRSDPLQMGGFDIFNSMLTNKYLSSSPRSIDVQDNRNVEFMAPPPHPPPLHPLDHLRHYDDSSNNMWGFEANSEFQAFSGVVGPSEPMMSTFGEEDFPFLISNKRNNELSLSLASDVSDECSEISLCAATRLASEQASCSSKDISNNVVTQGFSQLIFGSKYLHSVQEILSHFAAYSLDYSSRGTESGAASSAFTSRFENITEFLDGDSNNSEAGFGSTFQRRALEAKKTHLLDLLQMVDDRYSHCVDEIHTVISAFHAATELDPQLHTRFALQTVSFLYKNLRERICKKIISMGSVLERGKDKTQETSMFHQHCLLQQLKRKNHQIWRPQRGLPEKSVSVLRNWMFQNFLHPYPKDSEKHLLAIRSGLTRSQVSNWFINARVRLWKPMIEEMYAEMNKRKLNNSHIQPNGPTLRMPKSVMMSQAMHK

T2: ATH1-YFPN (ATH1 fused to the N-terminal fragment of yellow fluorescent protein) (Arabidopsis thaliana) (UniProt P48731)
T2 sequence: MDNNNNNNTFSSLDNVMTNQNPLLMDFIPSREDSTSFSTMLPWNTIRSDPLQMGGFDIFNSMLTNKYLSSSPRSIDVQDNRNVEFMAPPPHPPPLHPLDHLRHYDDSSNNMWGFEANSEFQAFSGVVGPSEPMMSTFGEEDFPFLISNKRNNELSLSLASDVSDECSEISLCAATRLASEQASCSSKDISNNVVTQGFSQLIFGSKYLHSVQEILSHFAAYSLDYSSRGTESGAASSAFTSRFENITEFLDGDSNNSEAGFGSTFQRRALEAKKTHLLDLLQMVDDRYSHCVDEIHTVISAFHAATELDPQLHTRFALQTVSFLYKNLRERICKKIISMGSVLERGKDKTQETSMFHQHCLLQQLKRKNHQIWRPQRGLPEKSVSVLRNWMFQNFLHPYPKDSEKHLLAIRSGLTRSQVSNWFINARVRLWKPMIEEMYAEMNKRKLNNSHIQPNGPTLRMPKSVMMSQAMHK


Tests used:
[1] = target: T1, ATH1-BD (Arabidopsis Thaliana Homeobox fused to the DNA binding domain) (Arabidopsis thaliana); assay: two-hybrid; BD fusions of ATH1 or its HD or SKY-BELL domain co-expressed with AD-OFP1 in yeast Y2HGold; growth on SD QDO (-Leu, -His, -Trp, -Ade) after selection on SD DDO (-Trp, -Leu); three replicates
[2] = target: T2, ATH1-YFPN (ATH1 fused to the N-terminal fragment of yellow fluorescent protein) (Arabidopsis thaliana); assay: split reporter; BiFC: YFPC and YFPN fusions co-expressed in Arabidopsis thaliana protoplasts after polyethylene glycol transfection; yellow fluorescence read by confocal microscopy

Binder | binding [1] | binding [2]
OFP1-AD (Ovate Family Protein1 fused to the activation domain) (protein, UniProt Q9LZW2 1-270) MGNNYRFKLSELIPNAWFYKLRDMSKSKKKNLQSQPNSTTSKKKHHAVPTPTSTTPLSPRPPRRPSHSSKAPPSHPPRKSSGNRLRHRATVDSKSSTTSGDSTTTETGSFSPDFRSDQVLLPDESLTGSWHSPCSSKLSKTATFTPPPELELRPIITKTAATARKTAVNSPAGVRLRMRSPRISVSSSARRSGSSARRSRAVVKASVDPKRDFKESMEEMIAENKIRATKDLEELLACYLCLNSDEYHAIIINVFKQIWLDLNLPPPHSK | binds | –
OFP1-YFPC (OFP1 fused to the C-terminal fragment of yellow fluorescent protein) (protein, UniProt Q9LZW2 1-270) MGNNYRFKLSELIPNAWFYKLRDMSKSKKKNLQSQPNSTTSKKKHHAVPTPTSTTPLSPRPPRRPSHSSKAPPSHPPRKSSGNRLRHRATVDSKSSTTSGDSTTTETGSFSPDFRSDQVLLPDESLTGSWHSPCSSKLSKTATFTPPPELELRPIITKTAATARKTAVNSPAGVRLRMRSPRISVSSSARRSGSSARRSRAVVKASVDPKRDFKESMEEMIAENKIRATKDLEELLACYLCLNSDEYHAIIINVFKQIWLDLNLPPPHSK | – | binds

— paper PMC6116164
